From US5676937A, “Deodorant compositions comprising inhibitors of odor-producing axillary bacterial exoenzymes” (Colgate-Palmolive Company, priority 1995, dated 1997)
For at least one compound, name, drawing or mass did not settle the structure.

Protein sequences, listed by entry. Tags and fused reporters are not part of them. Lines headed by an entry give the natural chain unless they say otherwise; changes in a name come on top.
UniProt P05804: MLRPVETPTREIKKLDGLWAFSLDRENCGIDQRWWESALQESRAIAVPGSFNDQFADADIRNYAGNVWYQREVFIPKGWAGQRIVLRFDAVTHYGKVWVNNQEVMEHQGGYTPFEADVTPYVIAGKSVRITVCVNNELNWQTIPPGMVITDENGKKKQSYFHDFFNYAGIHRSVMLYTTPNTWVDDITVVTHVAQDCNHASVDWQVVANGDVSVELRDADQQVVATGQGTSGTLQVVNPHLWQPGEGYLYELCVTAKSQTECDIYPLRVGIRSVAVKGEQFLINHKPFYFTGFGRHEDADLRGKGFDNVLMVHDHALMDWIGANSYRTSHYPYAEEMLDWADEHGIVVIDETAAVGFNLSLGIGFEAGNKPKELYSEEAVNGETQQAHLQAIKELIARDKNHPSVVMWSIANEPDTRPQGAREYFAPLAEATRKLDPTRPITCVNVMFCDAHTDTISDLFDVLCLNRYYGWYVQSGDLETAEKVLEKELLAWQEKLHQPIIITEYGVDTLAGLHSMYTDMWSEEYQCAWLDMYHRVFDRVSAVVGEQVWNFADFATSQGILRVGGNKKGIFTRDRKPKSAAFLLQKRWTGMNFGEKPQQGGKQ

Target: T1, beta-glucuronidase (Escherichia coli, UniProt P05804)
T1 construct: purchased Sigma Chemical Co
Experiment: Semiquantitative assay of beta-glucuronidase (4-MUG to fluorescent 4-MU)
Format: biochemical, E. coli
Design: key: + indicates enzyme inhibition; - indicates no enzyme inhibition
Details: test inhibitor at 0.1 mM to 100 mM, 37° C., Tris pH 7, fluorescence by UV lamp
Procedure: B-glucuronidase from E. coli and aryl sulfatase from Aerobacter aerogenes, 4-methyl umbelliferyl glucuronide, 4-methylumbelliferyl sulfate, 4-methylumbelliferone, and D-saccharic acid-.tangle-solidup.-lactone were purchased from Sigma Chemical Co. Sodium hexametaphosphate (SPORIX) was obtained from International Sourcing.
Semiquantitative assays of the exoenzymes beta-G and AS were prepared. The enzyme assays measure conversion at 37° C. of the non-fluorescent substrates 4-MUG (for beta-G) and 4-MUS (for AS) to fluorescent product, 4-MU. The assay mixtures contained:
For the semiquantitative studies, fluorescence was detected by long-wave UV lamp (Black-Light Eastern Corporation Model XX 15).
The effects of inhibitors on the enzymatic reactions were assessed by substituting aqueous Solutions of test inhibitor, at 0.1 mM to 100 mM, for the water. To rule out quenching of the fluorescence reaction by the inhibitors separate tests were performed comparing the fluorescence from 4-MU at the maximum concentration expected in the enzyme reaction mixtures with either inhibitor solution or water.
Various inhibiting compounds of mammalian beta-G's and AS's, as well as related materials, were tested in the assay. The classic inhibitor of beta-G is saccharic acid-.tangle-solidup.-lactone (glucarolactone). […]

Compound | inhibition of BETA-G
O=C(O)[C@H](O)[C@@H](O)[C@H](O)[C@H](O)CO [Gluconate, gluconate] | -
O=C(O)CN(CC(=O)O)CC(=O)O [NTA, nitrilotriacetate] | +
